According to paper PMC11702068, “NEK8 promotes the progression of gastric cancer by reprogramming asparagine metabolism” (Molecular Medicine, 2025):
Results are given in words; binding and its absence hold for the method and conditions named. In cells and extracts the contact can be indirect. A yes stands for co-enrichment or nearness to the bait. Other partners may have been found. Tags and fused reporters may be left off the sequences shown.

Molecular target: T1, Flag-tagged NEK8 (UniProt Q86SG6)
T1 sequence: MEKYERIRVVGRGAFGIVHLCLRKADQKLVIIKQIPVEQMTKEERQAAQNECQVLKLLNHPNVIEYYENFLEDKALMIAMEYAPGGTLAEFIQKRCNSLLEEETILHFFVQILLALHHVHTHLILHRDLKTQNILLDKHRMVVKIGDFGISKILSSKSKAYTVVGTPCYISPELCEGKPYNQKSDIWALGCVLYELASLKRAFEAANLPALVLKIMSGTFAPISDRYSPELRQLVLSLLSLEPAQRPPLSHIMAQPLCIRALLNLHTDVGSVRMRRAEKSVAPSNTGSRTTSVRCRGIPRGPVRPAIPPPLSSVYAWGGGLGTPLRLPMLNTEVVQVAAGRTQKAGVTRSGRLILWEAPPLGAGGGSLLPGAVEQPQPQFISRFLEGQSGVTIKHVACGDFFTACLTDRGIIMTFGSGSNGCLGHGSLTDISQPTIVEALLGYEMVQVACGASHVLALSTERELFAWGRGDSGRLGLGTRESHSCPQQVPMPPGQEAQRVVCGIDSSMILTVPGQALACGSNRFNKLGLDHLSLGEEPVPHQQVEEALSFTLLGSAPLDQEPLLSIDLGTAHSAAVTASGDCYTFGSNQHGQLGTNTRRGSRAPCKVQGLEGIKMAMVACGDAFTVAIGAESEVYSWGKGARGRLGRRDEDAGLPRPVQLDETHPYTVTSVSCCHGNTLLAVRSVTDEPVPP
Test: affinity purification with mass spectrometry; Flag-NEK8 expressed in HGC27 cells, pulled down with Flag M2 agarose beads; wash 20 mM Tris-HCl, 150 mM KCl, 1 mM DTT, 0.05% NP-40, 1 mM EDTA, 15% glycerol, 0.2 mM PMSF; SDS-PAGE, bands excised, MS

B1: asparagine synthetase (ASNS), endogenous (enzyme, UniProt P08243 1-561)
chain: MCGIWALFGSDDCLSVQCLSAMKIAHRGPDAFRFENVNGYTNCCFGFHRLAVVDPLFGMQPIRVKKYPYLWLCYNGEIYNHKKMQQHFEFEYQTKVDGEIILHLYDKGGIEQTICMLDGVFAFVLLDTANKKVFLGRDTYGVRPLFKAMTEDGFLAVCSEAKGLVTLKHSATPFLKVEPFLPGHYEVLDLKPNGKVASVEMVKYHHCRDVPLHALYDNVEKLFPGFEIETVKNNLRILFNNAVKKRLMTDRRIGCLLSGGLDSSLVAATLLKQLKEAQVQYPLQTFAIGMEDSPDLLAARKVADHIGSEHYEVLFNSEEGIQALDEVIFSLETYDITTVRASVGMYLISKYIRKNTDSVVIFSGEGSDELTQGYIYFHKAPSPEKAEEESERLLRELYLFDVLRADRTTAAHGLELRVPFLDHRFSSYYLSLPPEMRIPKNGIEKHLLRETFEDSNLIPKEILWRPKEAFSDGITSVKNSWFKILQEYVEHQVDDAMMANAAQKFPFNTPKTKEGYYYRQVFERHYPGRADWLSHYWMPKWINATDPSARTLTHYKSAVKA
binding: binds
